Reference: US20220096538A1, “PHARMACEUTICAL COMPOSITIONS AND METHODS FOR PREVENTION AND/OR TREATMENT OF INFLAMMATION” (priority 2020, published 2022)
Several values for one entry are separate records, joined by “and”; a condition that tells them apart may be missing. Identical values can stand only once. At least one structure is not confirmed: it was looked up by name or label, or the drawing left a doubt.

Key:
[1] = equivalent to 0.75 mg dexamethasone; cited from earlier work
[2] = tested on: LPS-GalN induced acute lung injury; experiment: LPS-GalN model, treatment 2 h post LPS-GalN: lung histopathological (ALI) score; conditions: low dose RJX, standard dose DEX, alone or combined
[3] = tested on: LPS-GalN induced liver injury; experiment: LPS-GalN model, treatment 2 h post LPS-GalN: liver histopathological score; conditions: low dose RJX, standard dose DEX, alone or combined

## C[C@H]1C[C@H]2[C@@H]3CCC4=CC(=O)C=C[C@]4(C)[C@@]3(F)[C@@H](O)C[C@]2(C)[C@@]1(O)C(=O)CO [Betamethasone]
[1]
  Approximate Equivalent Dose: 0.6 to 0.75 mg

## C[C@@H]1C[C@H]2[C@@H]3CCC4=CC(=O)C=C[C@]4(C)[C@@]3(F)[C@@H](O)C[C@]2(C)[C@@]1(O)C(=O)CO [DEX, dexamethasone]
[2]
  Lung Histopathological Score: ≥3 (severe damage or more), number of mice: 5 of 10 and 5/10
[1]
  Approximate Equivalent Dose: 0.75 mg
[3]
  Liver Histopathological Score: ≥3 (severe damage or more), number of mice: 5 of 10 and 5/10

## C[C@H]1C[C@@H]2[C@H]([C@@H](O)C[C@@]3(C)[C@H]2CC[C@]3(O)C(=O)CO)[C@@]2(C)C=CC(=O)C=C12 [Methylprednisolone]
[1]
  Approximate Equivalent Dose: 4 mg
